The data set in a line: Metabolomics of fetal brain at E14.5. The class given is in vivo, C57Bl/6J mice. The conditions noted are these: metabolite level in E14.5 fetal brain; for fold of change ABX/SPF: ANOVA contrast ABX/SPF; for fold of change GF/ABX: ANOVA contrast GF/ABX; for fold of change GF/SPF: ANOVA contrast GF/SPF; for fold of change GF/Sp: ANOVA contrast GF/Sp; for fold of change Sp/ABX: ANOVA contrast Sp/ABX; for fold of change Sp/SPF: ANOVA contrast Sp/SPF.

*1 amine or outer side, *2 acyl side, *3 side chain or, on linkers, in order; H or OH if unused. Where a SMILES comes first, the peptide text is derived from it. [ ]: non-standard residue; d: D form. γGlu = O=C(O)[C@H](CCC(=O)[*:2])N[*:1]; Abu = CC[C@H](N)C(=O)O

Consider `CNC(=N)N` [compound 438], for which the “fold of change ABX/SPF” value is 0.72, the “fold of change GF/ABX” value was 1.00, the “fold of change GF/SPF” value was 0.72 and the “fold of change GF/Sp” value was found to be 1.00. Moreover, the “fold of change Sp/ABX” value came out at 1.00 and the “fold of change Sp/SPF” value came to 0.72.

For `N=C(N)NCCCC(=O)O` [compound 439], the “fold of change ABX/SPF” value was found to be 0.83, the “fold of change GF/ABX” value amounted to 0.98, the “fold of change GF/SPF” value was determined as 0.82 and the “fold of change GF/Sp” value is on record as 1.13. For the same compound, the “fold of change Sp/ABX” value is recorded as 0.87 and the “fold of change Sp/SPF” value is reported as 0.72.

In the case of `N[C@@H](CCC(=O)N[C@@H](CSSC[C@H](N)C(=O)O)C(=O)NCC(=O)O)C(=O)O` [compound 445], the “fold of change ABX/SPF” value amounted to 0.21, the “fold of change GF/ABX” value is 4.83, the “fold of change GF/SPF” value was found to be 1.00 and the “fold of change GF/Sp” value amounted to 0.92. The “fold of change Sp/ABX” value amounted to 5.28 and the “fold of change Sp/SPF” value was 1.10.

In the case of `CSC[C@H](NC(=O)CC[C@H](N)C(=O)O)C(=O)NCC(=O)O` [compound 446], the “fold of change ABX/SPF” value came out at 0.82, the “fold of change GF/ABX” value was 1.03, the “fold of change GF/SPF” value was determined as 0.84 and the “fold of change GF/Sp” value was 1.10. For the same compound, the “fold of change Sp/ABX” value is 0.94 and the “fold of change Sp/SPF” value came to 0.77.

Turning to `CC(O)C(=O)SC[C@H](NC(=O)CC[C@H](N)C(=O)O)C(=O)NCC(=O)O` (stereo partly drawn) [compound 447], the “fold of change ABX/SPF” value amounted to 1.50, the “fold of change GF/ABX” value stood at 0.31, the “fold of change GF/SPF” value was 0.46 and the “fold of change GF/Sp” value turned out to be 0.70. Moreover, the “fold of change Sp/ABX” value turned out to be 0.44 and the “fold of change Sp/SPF” value is 0.66.

Turning to `O=C1CC[C@@H](C(=O)O)N1` [compound 451], the “fold of change ABX/SPF” value is on record as 0.65, the “fold of change GF/ABX” value is 0.97, the “fold of change GF/SPF” value is 0.63 and the “fold of change GF/Sp” value is recorded as 0.86. In addition, the “fold of change Sp/ABX” value is recorded as 1.13 and the “fold of change Sp/SPF” value is on record as 0.74.

As to `CC[C@H](NC(=O)CC[C@H](N)C(=O)O)C(=O)NCC(=O)O` [compound 456] (γGlu-[Abu]-Gly-OH), the “fold of change ABX/SPF” value was determined as 0.72, the “fold of change GF/ABX” value is recorded as 1.29, the “fold of change GF/SPF” value worked out at 0.92 and the “fold of change GF/Sp” value is given as 1.66. The “fold of change Sp/ABX” value is reported as 0.77 and the “fold of change Sp/SPF” value was 0.56.

In the case of `CC(C)(COP(=O)(O)OP(=O)(O)OC[C@H]1O[C@@H](n2cnc3c(N)ncnc32)[C@H](O)[C@@H]1O)[C@@H](O)C(=O)NCCC(=O)NCCSSC[C@H](NC(=O)CC[C@H](N)C(=O)O)C(=O)NCC(=O)O` [compound 460], the “fold of change ABX/SPF” value is recorded as 0.89, the “fold of change GF/ABX” value is given as 0.82, the “fold of change GF/SPF” value is on record as 0.72 and the “fold of change GF/Sp” value was 0.77. Moreover, the “fold of change Sp/ABX” value is recorded as 1.06 and the “fold of change Sp/SPF” value worked out at 0.94.

Take `CC(C)(COP(=O)(O)OP(=O)(O)OC[C@H]1O[C@@H](n2cnc3c(N)ncnc32)[C@H](O)[C@@H]1OP(=O)(O)O)[C@@H](O)C(=O)NCCC(=O)NCCSSC[C@H](NC(=O)CC[C@H](N)C(=O)O)C(=O)NCC(=O)O` [compound 461]: the “fold of change ABX/SPF” value is on record as 1.14, the “fold of change GF/ABX” value came to 0.90, the “fold of change GF/SPF” value was 1.02 and the “fold of change GF/Sp” value worked out at 1.12. Also, the “fold of change Sp/ABX” value stood at 0.80 and the “fold of change Sp/SPF” value is on record as 0.91.

For `C[C@H](NC(=O)CC[C@H](N)C(=O)O)C(=O)O` [compound 465], the “fold of change ABX/SPF” value turned out to be 0.81, the “fold of change GF/ABX” value is 0.78, the “fold of change GF/SPF” value stood at 0.63 and the “fold of change GF/Sp” value is on record as 1.32. The “fold of change Sp/ABX” value is given as 0.59 and the “fold of change Sp/SPF” value is on record as 0.48.

Take `N[C@@H](CCC(=O)N[C@@H](CCC(=O)O)C(=O)O)C(=O)O` [compound 467]: the “fold of change ABX/SPF” value was 0.77, the “fold of change GF/ABX” value is 0.73, the “fold of change GF/SPF” value turned out to be 0.56 and the “fold of change GF/Sp” value amounted to 0.94. In addition, the “fold of change Sp/ABX” value is reported as 0.78 and the “fold of change Sp/SPF” value was determined as 0.60.

Turning to `NC(=O)CC[C@H](NC(=O)CC[C@H](N)C(=O)O)C(=O)O` [compound 468], the “fold of change ABX/SPF” value worked out at 0.78, the “fold of change GF/ABX” value stood at 0.76, the “fold of change GF/SPF” value came to 0.59 and the “fold of change GF/Sp” value is reported as 0.88. Further, the “fold of change Sp/ABX” value worked out at 0.86 and the “fold of change Sp/SPF” value is listed as 0.67.

Consider `N[C@@H](CCC(=O)NCC(=O)O)C(=O)O` [compound 469], for which the “fold of change ABX/SPF” value is on record as 0.79, the “fold of change GF/ABX” value was determined as 0.84, the “fold of change GF/SPF” value is recorded as 0.66 and the “fold of change GF/Sp” value worked out at 1.25. In addition, the “fold of change Sp/ABX” value came to 0.67 and the “fold of change Sp/SPF” value turned out to be 0.53.

Regarding `CC[C@H](C)[C@H](NC(=O)CC[C@H](N)C(=O)O)C(=O)O` [compound 471], the “fold of change ABX/SPF” value is on record as 0.89, the “fold of change GF/ABX” value amounted to 0.84, the “fold of change GF/SPF” value was 0.75 and the “fold of change GF/Sp” value came to 0.83. Moreover, the “fold of change Sp/ABX” value was found to be 1.01 and the “fold of change Sp/SPF” value is recorded as 0.91.

Consider `CC(C)C[C@H](NC(=O)CC[C@H](N)C(=O)O)C(=O)O` [compound 472], for which the “fold of change ABX/SPF” value is recorded as 0.81, the “fold of change GF/ABX” value came out at 1.04, the “fold of change GF/SPF” value is reported as 0.84 and the “fold of change GF/Sp” value is listed as 0.97. Moreover, the “fold of change Sp/ABX” value amounted to 1.07 and the “fold of change Sp/SPF” value was found to be 0.86.

Consider `NCCCC[C@H](NC(=O)CC[C@H](N)C(=O)O)C(=O)O` [compound 473], for which the “fold of change ABX/SPF” value came out at 0.79, the “fold of change GF/ABX” value is 1.40, the “fold of change GF/SPF” value is reported as 1.11 and the “fold of change GF/Sp” value worked out at 1.18. Further, the “fold of change Sp/ABX” value is on record as 1.19 and the “fold of change Sp/SPF” value is on record as 0.94.

In the case of `N[C@@H](CCCCNC(=O)CC[C@H](N)C(=O)O)C(=O)O` [compound 474], the “fold of change ABX/SPF” value came to 0.66, the “fold of change GF/ABX” value amounted to 1.14, the “fold of change GF/SPF” value was determined as 0.75 and the “fold of change GF/Sp” value is 0.97. The “fold of change Sp/ABX” value turned out to be 1.18 and the “fold of change Sp/SPF” value stood at 0.78.

As to `CSCC[C@H](NC(=O)CC[C@H](N)C(=O)O)C(=O)O` [compound 475], the “fold of change ABX/SPF” value worked out at 0.82, the “fold of change GF/ABX” value came out at 0.72, the “fold of change GF/SPF” value was 0.60 and the “fold of change GF/Sp” value is 0.98. Besides, the “fold of change Sp/ABX” value was determined as 0.74 and the “fold of change Sp/SPF” value is 0.61.

For `N[C@@H](CCC(=O)N[C@@H](Cc1ccccc1)C(=O)O)C(=O)O` [compound 476], the “fold of change ABX/SPF” value turned out to be 0.81, the “fold of change GF/ABX” value was found to be 1.06, the “fold of change GF/SPF” value came out at 0.86 and the “fold of change GF/Sp” value was 0.85. Moreover, the “fold of change Sp/ABX” value turned out to be 1.25 and the “fold of change Sp/SPF” value was determined as 1.01.

As to `C[C@@H](O)[C@H](NC(=O)CC[C@H](N)C(=O)O)C(=O)O` [compound 477], the “fold of change ABX/SPF” value was found to be 0.74, the “fold of change GF/ABX” value worked out at 1.04, the “fold of change GF/SPF” value is 0.77 and the “fold of change GF/Sp” value amounted to 1.04. Further, the “fold of change Sp/ABX” value is recorded as 1.00 and the “fold of change Sp/SPF” value was determined as 0.74.

On to `N[C@@H](CCC(=O)N[C@@H](Cc1c[nH]c2ccccc12)C(=O)O)C(=O)O` [compound 478], for which the “fold of change ABX/SPF” value is 0.73, the “fold of change GF/ABX” value came out at 0.80, the “fold of change GF/SPF” value was 0.58 and the “fold of change GF/Sp” value is on record as 1.03. For the same compound, the “fold of change Sp/ABX” value is recorded as 0.77 and the “fold of change Sp/SPF” value is recorded as 0.57.

As to `N[C@@H](CCC(=O)N[C@@H](Cc1ccc(O)cc1)C(=O)O)C(=O)O` [compound 479], the “fold of change ABX/SPF” value was found to be 0.66, the “fold of change GF/ABX” value is listed as 0.95, the “fold of change GF/SPF” value was determined as 0.63 and the “fold of change GF/Sp” value is recorded as 0.72. Further, the “fold of change Sp/ABX” value is recorded as 1.33 and the “fold of change Sp/SPF” value was determined as 0.87.

In the case of `CC(C)[C@H](NC(=O)CC[C@H](N)C(=O)O)C(=O)O` [compound 480], the “fold of change ABX/SPF” value is listed as 0.88, the “fold of change GF/ABX” value is given as 0.97, the “fold of change GF/SPF” value was 0.86 and the “fold of change GF/Sp” value is recorded as 0.96. Also, the “fold of change Sp/ABX” value was 1.02 and the “fold of change Sp/SPF” value is reported as 0.90.

Regarding `O=C(O)CNC(=O)[C@@H]1CCCN1` [compound 756] (H-Pro-Gly-OH), the “fold of change ABX/SPF” value came out at 0.74, the “fold of change GF/ABX” value was determined as 1.09, the “fold of change GF/SPF” value amounted to 0.81 and the “fold of change GF/Sp” value was found to be 0.90. In addition, the “fold of change Sp/ABX” value amounted to 1.21 and the “fold of change Sp/SPF” value worked out at 0.90.

Consider `O=C(O)CNC(=O)Cc1ccccc1` [compound 929], for which the “fold of change ABX/SPF” value was determined as 0.45, the “fold of change GF/ABX” value is listed as 1.00, the “fold of change GF/SPF” value is on record as 0.45 and the “fold of change GF/Sp” value turned out to be 0.56. For the same compound, the “fold of change Sp/ABX” value worked out at 1.79 and the “fold of change Sp/SPF” value was 0.80.

With `OC[C@H]1OC[C@H](O)[C@@H](O)[C@@H]1O` [compound 955], the “fold of change ABX/SPF” value was determined as 0.80, the “fold of change GF/ABX” value turned out to be 2.54, the “fold of change GF/SPF” value amounted to 2.04 and the “fold of change GF/Sp” value was determined as 3.85. Also, the “fold of change Sp/ABX” value is given as 0.66 and the “fold of change Sp/SPF” value is reported as 0.53.

(Values after patent publication US12491217B2, “Compositions and methods for promoting healthy neural development in an unborn baby” (The Regents of the University of California, priority 2019, dated 2025).)
